The results in this text go back to paper PMC11067709 (Clinical and Translational Science, 2024).

The series in a line: clinical. The settings on record: male, human, plasma, po, 500 mg, 5 days, Arm C; for Cmax: C max,ss; for Tmax: T max,ss, median [minimum–maximum].

As a reminder, the AUC is the area under the concentration-time curve, a measure of exposure. For orientation: Cmax means the maximum level reached in the sampled fluid or tissue. The Tmax is the time at which the peak concentration occurs. Consider `COc1ccc2cc([C@H](C)C(=O)O)ccc2c1` [Naproxen], for which the area under the curve (AUC) (AUCτ,ss, combination: naproxen 500 mg BID + fexuprazan 40 mg BID, mean ± SD) came out at 907 ± 111 µg·h/mL. For the same compound, the Cmax worked out at 114 ± 12.9 µg/mL (combination: naproxen 500 mg BID + fexuprazan 40 mg BID, mean ± SD) and 104 ± 10.8 µg/mL (monotherapy: naproxen 500 mg BID, mean ± SD). Moreover, the time of peak concentration (Tmax) is, setting by setting: (combination: naproxen 500 mg BID + fexuprazan 40 mg BID) 1.5 h; (monotherapy: naproxen 500 mg BID) 3 h.
